Results reported in the supplement of paper PMC5949888.
± gives the standard deviation of the averaged measurements. Most values lie at the floor of the assay. Slopes are relative: functional sequences can read slightly below zero.

system: Saccharomyces cerevisiae PS128 hsf1 delta, HSF1(1-493) fusion; experiment: growth estimate (transactivation domain function in HSF1 fusion, heat-shock survival) (a.u. (slope of normalised read count over time)); higher = stronger growth at 37°C, i.e. more transactivation activity; details: library: random library
Protocol: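 Random 60-nt DNA library encoding peptides of up to 20 aa, fused to the C-terminus of yeast HSF1 residues 1-493 (C-terminal TAD deleted) and expressed from the native HSF1 promoter on a CEN plasmid in hsf1-deleted S. cerevisiae PS128. Cells were selected at 37°C on -trp 5-FOA plates for 0, 2, 4, 6 and 8 days and amplicons were sequenced. Growth estimate is the slope of a robust linear fit of total-sum-normalised read counts (normalised to the first time point) over time, using at least 2 replicates. Sequences are classed functional (TAD activity) above a threshold of -0.13, set from stop-codon control sequences.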

Substance | growth estimate
SRATEQRHLMHAKPIASMRS | < -0.25
HNCPVQEYPACRRAEITLRG | < -0.25
GRWIYMFKQLVDFHNGP | < -0.25
MCYRG | < -0.25
GVSSWVGA | < -0.25
MIVKTIVGLRPRPYPGLLKH | < -0.25
CRGFTAIYKNPISPGELSGG | < -0.25
DRCWRFS | < -0.25
WYSRGRNWLLDHCNRCPVSA | < -0.25
RRTKHFGSIRTGQKVHIANS | < -0.25
LSATNELIGTYRPSGLPRHI | < -0.25
AERICTLHGPRAKGPYVRSP | < -0.25
SVCSGKVMTGESISKCLHVM | < -0.25
RNGSHDVEERSGLSNHRTYV | < -0.25
LPHRREPMGLLWILRHR | < -0.25
GSFAVLFGRWI | < -0.25
PAGRDPSLQWVDTSVLFSLV | < -0.25
RLMRSRI | < -0.25
KNLRLVTVLRHL | < -0.25
HALREHARPVFA | < -0.25
YAPDELPSLPDSITVESFPT | < -0.25
CWGDMENRIVLAPPGTESIR | < -0.25
KSNTRRRNVFPCSQAGPARF | < -0.25
GMGKDERLWGTSDLLL | < -0.25

Substance | growth estimate
EPLIRGRGSDAIARVCPLGP | < -0.25
LVIIYFETSADIGTNTVIAM | < -0.25
MGGRCNSAFVNSKMIIAADV | < -0.25
DMCLVDYSIKRTRKQMSWAS | < -0.25
QGQL | < -0.25
PEECKGARLSARVKRTPQAV | < -0.25
RVPSLDKRKRIHPRVVQSFP | < -0.25
FTRGHGERAGRHLASPRNDT | < -0.25
LGAFILLLKPGGYENAEHQV | < -0.25
RASELHRHRGQFLEVRRNRK | < -0.25
GSVWSD | < -0.25
GEQKISISDNTDLPCGSRPS | < -0.25
VGVF | < -0.25
LTPSK | < -0.25
AAGKYWIIFGCSFRY | < -0.25
QSS | < -0.25
YLVWGSHKEGNTQ | -0.246
LFSGGRARFNQVERLWDRCR | < -0.25
GGK | < -0.25
CFYARQNSAQGTIRHIWLQA | < -0.25
EQSASNGADQGPRSRR | < -0.25
ERSQLLSSIR | < -0.25
GDMDLRKAS | < -0.25
SCGSHLSEPM | -0.18

Substance | growth estimate
HLEAHPILGLKRRHIFSRLA | < -0.25
SSEPRAGPGQMGTR | < -0.25
ITGALKGICHQDRDRL | < -0.25
TRLANTRQSRLQ | < -0.25
GVSANWRVGQRQPAGWRESA | < -0.25
KCFEKECRVHENIL | < -0.25
YRGRTPRGE | < -0.25
TAHPPHERNVTAQARTSRRE | < -0.25
RTTQFQI | < -0.25
CSCYQICVGLLVEVELRTYG | < -0.25
IRSGGTGPYVNEWLRCEYGQ | < -0.25
SNKWP | < -0.25
LLILDGRVVWSAPTVKVFAV | < -0.25
WTGGLLNVFLFYPEMVHLRI | < -0.25
GKRLNELFQMGFVQPVIEIC | < -0.25
PYLPNV | < -0.25
GVLHPHSILVGRSSIVRDVA | < -0.25
WSTGGPLLLIRLD | < -0.25
RGSPGPGFINNAVVVFDDAQ | < -0.25
VLTISAWFLWA | < -0.25
DEKKTARPTRGCAAIVPH | < -0.25
FTFPKFPACAR | < -0.25
VASLPVRRLVLSSRRIANFV | < -0.25
SPYAFRTRCVVKRSRCRRAE | < -0.25

Substance | growth estimate
DANSESSFTALIRRRSACAR | < -0.25
HGSDAG | < -0.25
AMCDFDYCIRWNALNVHLVK | < -0.25
HNGFGFPVVRLNPVALIMCR | < -0.25
LGQLQSVCVQHMVGLTHRSR | < -0.25
IKHFALGEQPPHVAYFTRRP | < -0.25
ILPKSLGSLTNFPDMARRSC | < -0.25
HAL | < -0.25
LSEESECQDH | < -0.25
DDHKPPGLARSSFSGR | < -0.25
AGSVQGDRRHGQT | < -0.25
AKLKLTLQR | < -0.25
CVCSRVRDPTYLHTGVGEPT | < -0.25
VLVIVLLQTKL | < -0.25
LADL | < -0.25
GCFL | < -0.25
QYIGACTIHLTDCGRSWCGS | < -0.25
AQMMLS | < -0.25
WLYCGITSGTNQGTPNYLRN | < -0.25
PTLNLIFSRPCLPVGD | < -0.25
CAARGS | < -0.25
LIHTQVPKGYVPDFPG | < -0.25
AVPHHSGNRSEGKAGNVRWE | < -0.25
IIEGPYYFQPGEVSSQRGAV | < -0.25

Substance | growth estimate
CCSGADSEARRRAGTASLCL | < -0.25
PWSGVQLQPARLLFNKPAMA | < -0.25
TLAGPSQGLEYITSLSLEWR | < -0.25
AMISG | < -0.25
LGRP | < -0.25
RIPDGETLWCRALERRPCKI | < -0.25
GSGGA | < -0.25
SSLDGGEVPKDSILSRSFFV | -0.118
LPGCLRGLVLFRPYSCRVLA | < -0.25
LYCRAPHMTT | < -0.25
RNPERSPHGSAVSYRT | < -0.25
RPYQGDCASFAPSST | < -0.25
EPGVSGKIAWVEHFWG | < -0.25
EEPSLRTLFLGTCCMLRSEV | -0.231
RIGQLIFITIGVAHSRSSGP | < -0.25
LAFDPLQGGFSKFGICSR | < -0.25
QMWDFTHSRDESGPCIGVTT | < -0.25
LLQVGTSFVQARI | < -0.25
PGFG | -0.246
RHGSQRYGWSYHFPRSVDKV | < -0.25
TWSLPTGVWSLGYDYVSGTW | < -0.25
RKDTPPRKVTCRVLTKIHGR | < -0.25
NAV | < -0.25
CGRCTVGSILPLA | < -0.25

Substance | growth estimate
CMGGYR | < -0.25
DARFFLFSGLVVPCKC | < -0.25
HSKSTLLCWHSHVHLSQQLP | < -0.25
KYESGPVKRT | < -0.25
ARDAGPTSTMGH | < -0.25
QESVPGHEKSGSDDMAVTCR | < -0.25
VKTWVPGLSREVLAELQRLR | < -0.25
GHTCPRATSSKANLWQKDGT | < -0.25
EQDKDDPSVAV | < -0.25
GTQCANVPKVLV | < -0.25
KTAR | < -0.25
RVAACGLCSPVIICAVPCVH | < -0.25
WVTPTCSCVGEGQRLHIGLG | < -0.25
RSSRLGQR | < -0.25
QWYDCKSIILDEYKADGPLS | < -0.25
LTK | -0.2485 ± 0.0022
YVVPLGVFTFIQIAI | -0.243
LPY | < -0.25
ARPN | < -0.25
GELTL | < -0.25
VEASTDTPIACFSHGCRSGQ | < -0.25
GLASKYPD | < -0.25
GPECGRFASQLLDKYHLSSP | < -0.25
SRDVLLPSPDFYSCLIRSRG | < -0.25

Random excerpt: 4 entries already listed, in no set order.
Substance | growth estimate
VEASTDTPIACFSHGCRSGQ | < -0.25
VKTWVPGLSREVLAELQRLR | < -0.25
LPY | < -0.25
GTQCANVPKVLV | < -0.25

(further entries)

Substance | growth estimate
GRGKLWGRRLFAANHLDRLG | < -0.25
GSSTVTRWSACIGLGVIELR | < -0.25
WMLLG | < -0.25
SSCPALRLNGPPSPIGQ | < -0.25
KTYRMTTPRGSDLGSL | < -0.25
RKSYELLHFCRECSLSRLQG | < -0.25
PPESKGRPIPRGKEKSKLIK | < -0.25
YGDWGSGNRVTYGYTFSV | < -0.25
STLAVRRIDPSRLLLVSLSA | < -0.25
VMGLFACVTTDQRSSRGRIV | < -0.25
YGRSIAKFPHATQTVSVGGI | < -0.25
FCWDRSGSAARTQPGMDQIR | < -0.25
ILVSAANEVGCIGSL | < -0.25
GLERNPLKWLPDRFK | < -0.25
ARCLAVSRDNHAWGRSQPNK | < -0.25
ICYSHVVGLCQSGEYNGPPL | < -0.25
VLLADERIRIRLLSLPTGTV | < -0.25
ASG | < -0.25
QLLQNESQIGPYLLRRWLYF | < -0.25
YLQHPCLWDSQWSGLSRPFC | < -0.25
LYPRCGHVLEGTQYRHGVCV | < -0.25
IHLVGTYACLLNSRWVSSAK | < -0.25
LGGAKAVWSKYWIIVPIYGS | < -0.25
RFCVCLASMVSTSVTLQAVG | < -0.25

Some of the entries so far, tab-delimited:
Substance	growth estimate
GRGKLWGRRLFAANHLDRLG	< -0.25
WMLLG	< -0.25
YGDWGSGNRVTYGYTFSV	< -0.25
STLAVRRIDPSRLLLVSLSA	< -0.25
LGGAKAVWSKYWIIVPIYGS	< -0.25

Further records:

Substance | growth estimate
CHMMKISS | < -0.25
GLCCVV | < -0.25
GPVFGCSKNLAGAAHAK | -0.243
NSPNNAPPQRRTEFYAGFTA | < -0.25
NLRSLLNDAIQG | < -0.25
HLGA | < -0.25
PGRNYVCGPRGFYRVTKVGT | < -0.25
IRYENDPCRYVWQPGRVFST | < -0.25
APSTTVDSARALVQDARDAL | < -0.25
SSFVKPIHVRT | < -0.25
RKESVPWQRHNGKWRHVGEE | < -0.25
LKSG | < -0.25
GGQVGE | < -0.25
HQGIARRRSNIPASNASDKS | < -0.25
LQSADYRIGNLCPRSTVGHK | < -0.25
RPG | < -0.25
LSCRNVCLL | < -0.25
RGCKKNLAPSSSTHA | < -0.25
RDPLRG | < -0.25
LTGVPILHRLVH | < -0.25
ATLVGQVARTLTQDVLSGGS | < -0.25
